This test has as its target T1, Myc-tagged wild-type human Tensin2 (human) (UniProt Q63HR2).
T1 sequence: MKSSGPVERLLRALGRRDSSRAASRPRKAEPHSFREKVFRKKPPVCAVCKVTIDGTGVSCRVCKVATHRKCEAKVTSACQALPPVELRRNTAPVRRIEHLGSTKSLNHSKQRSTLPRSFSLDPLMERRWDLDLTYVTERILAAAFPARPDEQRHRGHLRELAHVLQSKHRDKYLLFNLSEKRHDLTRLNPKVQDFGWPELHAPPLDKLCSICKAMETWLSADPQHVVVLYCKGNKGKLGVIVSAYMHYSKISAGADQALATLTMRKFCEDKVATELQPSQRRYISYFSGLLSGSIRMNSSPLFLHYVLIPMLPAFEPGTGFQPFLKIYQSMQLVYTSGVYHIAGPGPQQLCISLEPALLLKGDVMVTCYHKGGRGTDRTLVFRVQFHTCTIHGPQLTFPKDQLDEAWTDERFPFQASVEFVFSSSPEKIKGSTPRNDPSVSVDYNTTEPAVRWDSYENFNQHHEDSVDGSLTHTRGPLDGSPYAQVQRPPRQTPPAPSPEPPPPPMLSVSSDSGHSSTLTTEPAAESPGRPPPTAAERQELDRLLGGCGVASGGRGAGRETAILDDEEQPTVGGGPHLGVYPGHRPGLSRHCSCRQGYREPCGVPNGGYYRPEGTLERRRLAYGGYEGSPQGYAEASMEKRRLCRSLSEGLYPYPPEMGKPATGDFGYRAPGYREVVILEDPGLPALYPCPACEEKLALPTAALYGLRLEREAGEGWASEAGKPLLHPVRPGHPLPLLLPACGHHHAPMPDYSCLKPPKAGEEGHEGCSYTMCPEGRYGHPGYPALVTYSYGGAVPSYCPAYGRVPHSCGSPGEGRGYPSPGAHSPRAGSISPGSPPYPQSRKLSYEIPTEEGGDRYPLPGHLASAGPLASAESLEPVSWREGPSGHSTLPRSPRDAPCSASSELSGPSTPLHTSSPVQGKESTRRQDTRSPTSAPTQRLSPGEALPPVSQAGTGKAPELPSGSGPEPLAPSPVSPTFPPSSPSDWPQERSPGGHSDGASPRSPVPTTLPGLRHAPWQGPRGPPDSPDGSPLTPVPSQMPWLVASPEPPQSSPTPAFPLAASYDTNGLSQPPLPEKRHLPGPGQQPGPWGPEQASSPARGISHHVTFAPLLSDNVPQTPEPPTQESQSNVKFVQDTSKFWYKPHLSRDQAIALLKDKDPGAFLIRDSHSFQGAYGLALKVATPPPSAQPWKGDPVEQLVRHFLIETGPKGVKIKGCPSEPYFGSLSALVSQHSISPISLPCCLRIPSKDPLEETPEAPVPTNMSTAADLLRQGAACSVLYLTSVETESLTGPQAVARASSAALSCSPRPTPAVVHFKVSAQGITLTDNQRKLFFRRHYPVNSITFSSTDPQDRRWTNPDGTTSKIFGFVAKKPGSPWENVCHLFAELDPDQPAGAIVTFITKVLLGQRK
Nature of the test: co-IP; HEK293T cells transfected with Axl (wild type or mutants) and Myc-TNS2; NETN lysis buffer (150 mM NaCl, 1 mM EDTA, 20 mM Tris-Cl pH 8.0, 0.5% NP-40); reciprocal IP with anti-Myc (9E10) or anti-Axl (C-20) at 4 °C overnight, protein A/G-agarose; Western blot. (A western blot detects proteins with antibodies after separation by electrophoresis.)

Sequences of proteins named here, by UniProt entry; tags and fusion partners are left off. A change or cut given only in a name is not applied to a line headed by its entry.
UniProt P30530: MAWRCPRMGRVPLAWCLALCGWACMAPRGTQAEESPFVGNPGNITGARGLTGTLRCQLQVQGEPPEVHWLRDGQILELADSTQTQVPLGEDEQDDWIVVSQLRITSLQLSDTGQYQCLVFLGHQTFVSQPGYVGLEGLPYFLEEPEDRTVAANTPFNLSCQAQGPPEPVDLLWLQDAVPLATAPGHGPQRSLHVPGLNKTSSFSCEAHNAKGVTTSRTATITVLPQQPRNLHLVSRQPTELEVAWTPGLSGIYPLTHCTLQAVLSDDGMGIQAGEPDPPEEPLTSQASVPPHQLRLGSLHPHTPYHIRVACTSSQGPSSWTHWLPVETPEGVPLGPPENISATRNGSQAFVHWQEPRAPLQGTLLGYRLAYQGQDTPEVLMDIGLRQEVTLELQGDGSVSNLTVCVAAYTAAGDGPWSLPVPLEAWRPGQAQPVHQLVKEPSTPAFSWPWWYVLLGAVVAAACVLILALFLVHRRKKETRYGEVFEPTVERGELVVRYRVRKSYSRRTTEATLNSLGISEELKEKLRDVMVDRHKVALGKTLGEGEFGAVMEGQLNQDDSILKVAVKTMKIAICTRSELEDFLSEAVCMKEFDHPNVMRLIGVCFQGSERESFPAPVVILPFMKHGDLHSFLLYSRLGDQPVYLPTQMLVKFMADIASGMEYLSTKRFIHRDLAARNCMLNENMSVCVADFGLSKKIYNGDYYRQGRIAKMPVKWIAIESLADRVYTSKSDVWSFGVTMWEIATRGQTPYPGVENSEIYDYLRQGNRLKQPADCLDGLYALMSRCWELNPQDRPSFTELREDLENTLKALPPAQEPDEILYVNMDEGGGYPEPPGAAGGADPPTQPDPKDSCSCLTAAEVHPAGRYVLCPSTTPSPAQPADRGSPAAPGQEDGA

No constants are given. Whether binding was seen depends on the method and setting. In cells and extracts the contact can be indirect. Binding calls can cover weak binding; strength is not graded here. Where a sequence is shown, tags or fusion partners need not be part of it.

Turning to “Axl Y886F/Y821F double mutant (from UniProt P30530) (receptor)”, the binding entry is “binds”.

Source of the values: PMC6233515.
